Laboratory results published in patent US7608281B2, “Composition and use of RAR antagonists for promoting chondrogenesis” (T. Michael Underhill, priority 1999, dated 2009).
For at least one compound, name, drawing or mass did not settle the structure.

System: wild-type limb mesenchyme micromass cultures
Assay: Cartilage nodule formation in wild-type limb bud micromass cultures (alcian blue staining)
Format: cell-based, murine
Settings: 10 or 20 nM all-trans RA + Noggin (data not shown)
Method: Micromass cultures were prepared from murine E11.25 to E11.75 fore and hind limb buds as previously described with the following modifications (Cash et al. (1997) J. Cell Biol. 136, 445-457). After proteolytic digestion cells were filtered through a Cell Sieve ([…], Falcon) to obtain a single cell suspension. Culture media (40% Dulbecco's modified Eagle's medium, 60% F12 was supplemented with fetal bovine serum to 10%, Gibco-BRL) was changed daily. […] Addition/removal experiments included either adding or removing supplemented media on the indicated culture day, 24 hours after culture initiation was considered day 1. To detect transgene-expressing cells, cultures were fixed stained as previously described, with magenta-gal (BioSynth International Inc.) being substituted for X-gal. This was followed by alcian blue staining for cartilage-specific glycosaminoglycans. Alcian blue staining of magenta-gal stained cultures turned the red precipitate to a purple color, this is a result of incubating magenta-gal stained cells at pH 1. This double-staining technique enables transgene-expressing cells to be localized with respect to alcian blue stained cartilage nodules.

## CC1=C(/C=C/C(C)=C/C=C/C(C)=C/C(=O)O)C(C)(C)CCC1 [all-trans RA]
  nodule formation in Noggin-treated cultures: further diminished nodule formation
